From paper PMC7997910
Results are given in words; binding and its absence hold for the method and conditions named. Binding seen in cells or lysates may run through a third protein. Some results given as binding are weak or reduced against the parent protein; the word gives no strength. One block for each substance: values may come before it.

Sequences of proteins named here, by UniProt entry; tags and fusion partners are left off. A change or cut given only in a name is not applied to a line headed by its entry. Residues count along the entry.
UniProt O35604, residues 23-1277: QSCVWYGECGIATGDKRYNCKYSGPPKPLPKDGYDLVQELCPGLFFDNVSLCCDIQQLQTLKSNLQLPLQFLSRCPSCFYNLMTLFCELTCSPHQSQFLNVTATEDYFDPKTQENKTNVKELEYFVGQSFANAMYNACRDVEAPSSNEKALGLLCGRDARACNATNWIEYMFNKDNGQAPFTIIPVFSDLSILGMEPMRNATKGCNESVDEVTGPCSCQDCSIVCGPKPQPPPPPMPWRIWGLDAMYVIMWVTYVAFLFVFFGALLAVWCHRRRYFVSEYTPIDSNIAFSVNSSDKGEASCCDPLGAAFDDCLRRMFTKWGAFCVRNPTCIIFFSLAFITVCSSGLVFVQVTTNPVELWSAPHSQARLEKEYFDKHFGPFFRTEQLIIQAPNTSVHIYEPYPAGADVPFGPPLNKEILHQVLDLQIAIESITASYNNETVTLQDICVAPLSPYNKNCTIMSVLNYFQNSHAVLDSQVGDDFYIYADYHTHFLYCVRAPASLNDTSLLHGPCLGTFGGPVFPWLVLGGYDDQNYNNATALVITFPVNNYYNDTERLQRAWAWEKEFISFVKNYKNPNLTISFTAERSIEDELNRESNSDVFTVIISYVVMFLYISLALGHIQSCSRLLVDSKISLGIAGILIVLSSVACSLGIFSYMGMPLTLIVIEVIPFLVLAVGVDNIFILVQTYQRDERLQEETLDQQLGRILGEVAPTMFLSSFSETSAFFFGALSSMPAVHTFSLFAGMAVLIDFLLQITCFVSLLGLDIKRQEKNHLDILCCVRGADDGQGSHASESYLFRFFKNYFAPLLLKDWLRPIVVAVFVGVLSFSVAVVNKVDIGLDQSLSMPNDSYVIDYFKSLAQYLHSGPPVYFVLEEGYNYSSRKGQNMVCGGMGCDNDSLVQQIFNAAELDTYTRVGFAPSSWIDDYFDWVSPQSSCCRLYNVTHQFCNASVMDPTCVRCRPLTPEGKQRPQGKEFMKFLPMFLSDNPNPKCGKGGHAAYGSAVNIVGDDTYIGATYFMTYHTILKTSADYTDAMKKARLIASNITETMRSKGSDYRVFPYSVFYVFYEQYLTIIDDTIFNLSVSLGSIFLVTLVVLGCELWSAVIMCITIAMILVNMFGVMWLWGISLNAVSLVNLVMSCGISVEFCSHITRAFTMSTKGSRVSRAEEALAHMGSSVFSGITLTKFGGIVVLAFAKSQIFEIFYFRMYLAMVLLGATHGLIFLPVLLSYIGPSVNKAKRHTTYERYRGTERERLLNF
UniProt Q8CJ69, residues 40-685: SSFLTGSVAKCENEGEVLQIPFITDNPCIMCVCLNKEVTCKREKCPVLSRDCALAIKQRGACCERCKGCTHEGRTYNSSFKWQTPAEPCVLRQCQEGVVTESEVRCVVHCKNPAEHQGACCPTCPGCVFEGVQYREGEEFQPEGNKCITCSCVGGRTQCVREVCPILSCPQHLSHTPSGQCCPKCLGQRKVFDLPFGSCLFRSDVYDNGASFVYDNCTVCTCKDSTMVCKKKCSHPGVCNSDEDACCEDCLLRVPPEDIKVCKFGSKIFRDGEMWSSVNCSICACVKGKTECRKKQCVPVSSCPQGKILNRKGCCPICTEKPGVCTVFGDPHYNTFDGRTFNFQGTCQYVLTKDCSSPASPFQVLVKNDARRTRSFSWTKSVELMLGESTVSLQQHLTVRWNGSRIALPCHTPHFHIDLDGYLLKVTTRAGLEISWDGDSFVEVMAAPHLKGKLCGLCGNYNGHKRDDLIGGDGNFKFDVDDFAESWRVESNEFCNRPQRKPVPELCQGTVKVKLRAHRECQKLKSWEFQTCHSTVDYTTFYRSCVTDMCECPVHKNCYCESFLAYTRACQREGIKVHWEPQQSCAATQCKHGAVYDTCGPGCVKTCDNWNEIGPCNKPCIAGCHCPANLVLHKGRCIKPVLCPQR
UniProt O15118: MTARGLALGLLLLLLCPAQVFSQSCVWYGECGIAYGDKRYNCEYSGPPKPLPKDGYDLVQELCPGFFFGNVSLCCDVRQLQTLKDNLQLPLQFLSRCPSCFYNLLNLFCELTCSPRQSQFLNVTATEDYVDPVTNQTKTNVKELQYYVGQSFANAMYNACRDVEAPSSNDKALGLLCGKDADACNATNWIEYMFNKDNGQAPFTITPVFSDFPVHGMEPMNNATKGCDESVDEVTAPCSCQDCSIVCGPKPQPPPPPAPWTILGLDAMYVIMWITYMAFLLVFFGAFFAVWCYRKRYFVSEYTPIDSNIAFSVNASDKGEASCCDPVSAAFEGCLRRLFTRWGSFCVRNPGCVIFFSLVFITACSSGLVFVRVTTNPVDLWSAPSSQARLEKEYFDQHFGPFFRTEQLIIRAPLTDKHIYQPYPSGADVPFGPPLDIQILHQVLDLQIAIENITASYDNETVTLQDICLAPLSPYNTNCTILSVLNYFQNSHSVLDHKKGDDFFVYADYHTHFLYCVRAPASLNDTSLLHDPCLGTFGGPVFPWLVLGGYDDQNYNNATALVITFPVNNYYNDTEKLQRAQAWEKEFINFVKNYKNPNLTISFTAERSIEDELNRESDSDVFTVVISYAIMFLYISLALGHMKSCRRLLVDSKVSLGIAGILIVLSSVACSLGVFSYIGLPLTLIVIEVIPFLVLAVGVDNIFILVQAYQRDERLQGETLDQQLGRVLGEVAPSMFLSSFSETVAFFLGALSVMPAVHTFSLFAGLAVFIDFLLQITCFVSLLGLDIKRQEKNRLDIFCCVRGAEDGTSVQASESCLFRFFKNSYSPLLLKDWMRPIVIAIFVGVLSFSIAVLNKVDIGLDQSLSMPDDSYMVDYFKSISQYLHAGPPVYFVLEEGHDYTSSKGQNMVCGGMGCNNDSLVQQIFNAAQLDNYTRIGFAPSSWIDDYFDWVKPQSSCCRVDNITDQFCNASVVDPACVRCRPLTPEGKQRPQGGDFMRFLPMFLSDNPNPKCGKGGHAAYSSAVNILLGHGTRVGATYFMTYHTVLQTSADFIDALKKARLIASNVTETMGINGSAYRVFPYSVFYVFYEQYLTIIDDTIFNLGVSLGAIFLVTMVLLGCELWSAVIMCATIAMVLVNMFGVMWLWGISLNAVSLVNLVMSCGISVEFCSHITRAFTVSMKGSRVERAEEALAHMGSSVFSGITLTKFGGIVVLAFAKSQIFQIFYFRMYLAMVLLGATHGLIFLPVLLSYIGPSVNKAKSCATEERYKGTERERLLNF
overexpressed NPC1 in HEK293 cells: residues 23-1278 of O15118
UniProt P06213, residues 28-1382: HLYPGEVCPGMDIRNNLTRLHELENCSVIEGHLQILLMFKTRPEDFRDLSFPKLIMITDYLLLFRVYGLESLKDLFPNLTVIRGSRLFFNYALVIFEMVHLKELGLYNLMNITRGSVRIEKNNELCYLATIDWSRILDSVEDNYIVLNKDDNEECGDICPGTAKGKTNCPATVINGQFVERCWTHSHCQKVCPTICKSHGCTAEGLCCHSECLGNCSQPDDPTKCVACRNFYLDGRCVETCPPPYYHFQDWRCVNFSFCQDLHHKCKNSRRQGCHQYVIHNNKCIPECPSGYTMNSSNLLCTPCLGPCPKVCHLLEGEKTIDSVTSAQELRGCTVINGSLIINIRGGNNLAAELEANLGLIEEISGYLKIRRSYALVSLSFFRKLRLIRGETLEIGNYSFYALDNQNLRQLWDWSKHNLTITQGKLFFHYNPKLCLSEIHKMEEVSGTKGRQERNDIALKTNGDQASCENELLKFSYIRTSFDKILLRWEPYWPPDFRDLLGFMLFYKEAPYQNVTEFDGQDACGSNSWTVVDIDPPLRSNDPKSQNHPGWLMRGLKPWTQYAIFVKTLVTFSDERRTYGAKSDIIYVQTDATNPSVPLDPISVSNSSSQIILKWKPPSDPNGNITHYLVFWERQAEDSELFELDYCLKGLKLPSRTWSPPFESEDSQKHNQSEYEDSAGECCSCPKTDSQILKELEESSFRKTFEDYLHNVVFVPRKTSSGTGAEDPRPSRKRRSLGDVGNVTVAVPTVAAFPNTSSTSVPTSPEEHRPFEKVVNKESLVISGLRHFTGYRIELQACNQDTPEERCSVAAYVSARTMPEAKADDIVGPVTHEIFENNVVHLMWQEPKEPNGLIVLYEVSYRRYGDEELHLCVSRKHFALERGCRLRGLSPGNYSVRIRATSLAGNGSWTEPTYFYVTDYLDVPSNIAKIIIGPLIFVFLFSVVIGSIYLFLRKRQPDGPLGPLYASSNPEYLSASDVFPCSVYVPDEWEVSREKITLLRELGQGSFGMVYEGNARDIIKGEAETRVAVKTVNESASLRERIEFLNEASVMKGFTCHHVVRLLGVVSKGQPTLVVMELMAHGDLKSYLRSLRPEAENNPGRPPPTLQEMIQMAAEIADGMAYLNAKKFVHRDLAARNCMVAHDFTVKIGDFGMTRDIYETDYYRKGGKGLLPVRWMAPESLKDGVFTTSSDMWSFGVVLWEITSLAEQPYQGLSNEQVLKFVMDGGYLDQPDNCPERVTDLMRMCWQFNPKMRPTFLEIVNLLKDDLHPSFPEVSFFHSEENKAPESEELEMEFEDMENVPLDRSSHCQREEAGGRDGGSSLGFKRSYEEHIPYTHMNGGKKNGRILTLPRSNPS

Key:
[1] = target: endogenous NPC1 in primary hepatocytes (mouse (endogenous in primary hepatocytes)) (UniProt O35604); assay: co-IP; primary hepatocytes treated with flag-tagged BMPER; endogenous NPC1 (Supplementary Fig. 8d; which protein was precipitated is not told); only the binder purified
[2] = target: flag-tagged BMPER expressed in HEK293 cells (UniProt Q8CJ69); assay: co-IP; HEK293 cells co-transfected with a Flag-tagged and a GFP-tagged construct; lysates (1% Triton X-100, 50 mM Tris pH 7.4, 150 mM NaCl, 10% glycerol) precipitated with anti-Flag resin, blotted with anti-GFP and anti-flag
[3] = target: Flag-tagged NPC1 (Niemann-Pick C1) (UniProt O15118); assay: as above
[4] = target: overexpressed NPC1 in HEK293 cells (UniProt O15118); assay: co-IP; overexpressed NPC1 and IR in HEK293 cells (Supplementary Fig. 8h)

- binding [1]: binds
Substance: purified flag-tagged BMPER protein (from UniProt Q8CJ69 40-685)

- binding [2]: binds
Substance: GFP-tagged NPC1 N-terminal domain construct (NTD, a.a. 25-164) (from UniProt O15118 25-164) (domain or fragment)

- binding [3]: binds
Substance: GFP-tagged BMPER (bone morphogenetic protein-binding endothelial regulator) (from UniProt Q8CJ69 40-685)

- binding [4]: binds
Substance: overexpressed insulin receptor (IR) in HEK293 cells (from UniProt P06213 28-1382)
